Measurements published in PMC5974779, “Prediction of Drug-Induced Hepatotoxicity Using Long-Term Stable Primary Hepatic 3D Spheroid Cultures in Chemically Defined Conditions” (Toxicological Sciences, 2018).

Test system: primary human hepatocytes (PHH) 3D spheroids

| SMILES | Chemically defined spheroids (this study) 20x |
| --- | --- |
| CN(C)CCN(Cc1cccs1)c1ccccn1 [Methapyrilene] | Negative |
| Cc1ccccc1C(OCCN(C)C)c1ccccc1 (centres unmarked) [Orphenadrine] | Negative |
